According to paper PMC9373806:
No constants are given. Whether binding was seen depends on the method and setting. Binding seen in cells or lysates may run through a third protein. Some results given as binding are weak or reduced against the parent protein; the word gives no strength.

The chains behind the UniProt entries cited, without tags or fusion partners.
UniProt Q4V8I7: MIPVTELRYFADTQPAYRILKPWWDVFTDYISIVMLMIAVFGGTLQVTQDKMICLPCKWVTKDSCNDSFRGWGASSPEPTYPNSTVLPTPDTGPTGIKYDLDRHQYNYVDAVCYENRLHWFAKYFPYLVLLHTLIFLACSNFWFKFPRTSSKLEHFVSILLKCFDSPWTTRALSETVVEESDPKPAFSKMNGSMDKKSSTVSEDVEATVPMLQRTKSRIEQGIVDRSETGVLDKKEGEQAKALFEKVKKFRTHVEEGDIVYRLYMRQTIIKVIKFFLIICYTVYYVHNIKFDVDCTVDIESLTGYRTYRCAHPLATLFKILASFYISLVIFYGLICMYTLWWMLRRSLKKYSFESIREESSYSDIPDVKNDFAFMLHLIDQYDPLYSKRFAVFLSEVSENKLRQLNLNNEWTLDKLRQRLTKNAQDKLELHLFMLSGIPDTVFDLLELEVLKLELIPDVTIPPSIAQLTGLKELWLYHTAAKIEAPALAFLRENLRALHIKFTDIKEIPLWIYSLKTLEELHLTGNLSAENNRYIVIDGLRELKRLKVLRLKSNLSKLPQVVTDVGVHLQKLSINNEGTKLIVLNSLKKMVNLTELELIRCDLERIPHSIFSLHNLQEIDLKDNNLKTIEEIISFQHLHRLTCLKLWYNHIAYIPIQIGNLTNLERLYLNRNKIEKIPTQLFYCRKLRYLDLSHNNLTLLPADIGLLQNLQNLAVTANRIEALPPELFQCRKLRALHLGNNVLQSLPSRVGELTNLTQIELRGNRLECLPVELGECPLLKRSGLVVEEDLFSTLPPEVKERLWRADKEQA
UniProt P62994: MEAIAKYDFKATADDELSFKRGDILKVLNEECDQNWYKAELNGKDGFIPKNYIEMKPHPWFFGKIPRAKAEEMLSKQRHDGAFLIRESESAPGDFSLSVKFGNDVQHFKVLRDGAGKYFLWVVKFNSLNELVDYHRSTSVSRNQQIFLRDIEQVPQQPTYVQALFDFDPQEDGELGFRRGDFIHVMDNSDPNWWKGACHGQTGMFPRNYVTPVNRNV
UniProt Q62689: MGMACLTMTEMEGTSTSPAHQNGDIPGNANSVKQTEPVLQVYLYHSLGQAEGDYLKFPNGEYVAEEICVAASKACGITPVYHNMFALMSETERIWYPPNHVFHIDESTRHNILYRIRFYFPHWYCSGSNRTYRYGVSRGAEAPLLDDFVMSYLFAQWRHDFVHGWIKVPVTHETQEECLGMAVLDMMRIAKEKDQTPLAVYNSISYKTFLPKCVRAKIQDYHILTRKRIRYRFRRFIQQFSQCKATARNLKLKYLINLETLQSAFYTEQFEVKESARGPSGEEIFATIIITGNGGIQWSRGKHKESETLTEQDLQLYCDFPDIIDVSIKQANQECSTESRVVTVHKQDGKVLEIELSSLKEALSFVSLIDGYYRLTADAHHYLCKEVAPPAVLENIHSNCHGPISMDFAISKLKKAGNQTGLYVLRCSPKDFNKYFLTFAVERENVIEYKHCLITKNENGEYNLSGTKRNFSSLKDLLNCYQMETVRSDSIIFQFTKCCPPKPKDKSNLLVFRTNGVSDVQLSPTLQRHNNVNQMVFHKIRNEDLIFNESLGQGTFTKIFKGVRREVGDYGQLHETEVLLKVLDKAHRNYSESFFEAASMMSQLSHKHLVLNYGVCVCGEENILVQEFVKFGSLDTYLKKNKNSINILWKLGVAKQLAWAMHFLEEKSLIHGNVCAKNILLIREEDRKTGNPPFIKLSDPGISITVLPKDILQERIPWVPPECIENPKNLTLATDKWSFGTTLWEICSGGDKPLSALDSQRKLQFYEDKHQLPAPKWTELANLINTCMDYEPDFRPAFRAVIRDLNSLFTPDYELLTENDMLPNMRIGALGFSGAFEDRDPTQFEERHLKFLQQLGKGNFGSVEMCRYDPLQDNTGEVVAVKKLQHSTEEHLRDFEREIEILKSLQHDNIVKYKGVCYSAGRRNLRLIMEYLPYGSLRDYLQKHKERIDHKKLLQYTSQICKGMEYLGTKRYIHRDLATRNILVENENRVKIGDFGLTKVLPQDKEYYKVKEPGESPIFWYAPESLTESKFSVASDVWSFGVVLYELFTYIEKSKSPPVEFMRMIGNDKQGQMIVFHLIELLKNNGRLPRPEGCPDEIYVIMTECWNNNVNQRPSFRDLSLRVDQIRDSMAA

Target: Leucine-rich repeat-containing protein 8A, rat wild-type full length (LV-Lrrc8aWT) (rat) (UniProt Q4V8I7)
Assay: co-IP; fibroblasts transfected with lentivirus vectors LV-Lrrc8aWT, LV-Lrrc8aΔLRRD or LV-Control; which protein was precipitated is not told in the text shown

| binding | Substance |
| --- | --- |
| binds | Growth factor receptor-bound protein 2 (from UniProt P62994 1-217) |
| binds | Janus kinase-2 (from UniProt Q62689 1-1132) |
